Legend:
[1] = tested on: 3T3 cells; test: Survey of liquid crystals for alignment by cells; assay type: cell-based; details: cultured 3T3 cells
[2] = Phospholipid influence on liquid crystal alignment: DOPG; set-up: key: H=homeotropically aligned; U=unaligned; C=cholesteric alignment; details: 2 ul 0.01 M in chloroform on glass slide

SMILES | Liquid crystal alignment, 3T3 cells [1] | Liquid crystal alignment, DOPG [2]
CCCCCc1ccc(-c2ccc(C#N)cc2)cc1 [5CB, 4-cyano-4′-pentylbiphenyl] | Homeotropic | H
CCCCCCCCc1ccc(-c2ccc(C#N)cc2)cc1 [4OCB, 4′-octyl-4-biphenyl-carbonitrile] | Homeotropic | –
CCCCCC[C@H]1CC[C@H](c2ccc(N=C=S)cc2)CC1 [6CHBT, 1-(trans-4-hexylcyclohexyl)-4-isothiocyanato-benzene] | Homeotropic | H
